Data: publication PMC8696166
No constants are given. Whether binding was seen depends on the method and setting. Binding can be weak; no strength is given. Where a sequence is shown, tags or fusion partners need not be part of it.

Chains of the proteins cited; added tags and fusions are not shown. Lines headed by an entry give the natural chain unless they say otherwise; changes in a name come on top.
UniProt Q31KP9: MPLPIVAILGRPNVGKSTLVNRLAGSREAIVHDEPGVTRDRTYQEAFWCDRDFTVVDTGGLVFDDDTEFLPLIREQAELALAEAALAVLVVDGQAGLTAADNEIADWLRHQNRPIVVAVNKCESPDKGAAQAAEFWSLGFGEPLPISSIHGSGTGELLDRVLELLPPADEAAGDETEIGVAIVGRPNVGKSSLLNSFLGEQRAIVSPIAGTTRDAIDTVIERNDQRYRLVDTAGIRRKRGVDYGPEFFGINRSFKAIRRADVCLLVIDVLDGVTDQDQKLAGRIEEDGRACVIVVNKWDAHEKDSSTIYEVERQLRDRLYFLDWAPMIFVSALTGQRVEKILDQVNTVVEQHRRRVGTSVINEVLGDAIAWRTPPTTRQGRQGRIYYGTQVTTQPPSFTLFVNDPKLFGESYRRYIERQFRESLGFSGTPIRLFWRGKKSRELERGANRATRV

Legend:
[1] = biological target: EngA, BACTH fusions (Synechococcus elongatus PCC7942) (UniProt Q31KP9); experiment: two-hybrid; bacterial two-hybrid (BACTH, reconstitution of B. pertussis adenylate cyclase from T18 and T25) in E. coli BTH101; plate assays on MacConkey-lactose and M63-maltose + X-gal, 0.5 mM IPTG, 30°C; signals classed by eye into five levels
[2] = biological target: GD1 domain of EngA, BACTH fusions (Synechococcus elongatus PCC7942); experiment: as above
[3] = biological target: His-GD1 (N-terminally His-tagged GD1 domain of EngA) (Synechococcus elongatus PCC7942); experiment: pull-down; His-EngA or His-GD1 (6 μg) bound to DynaBeads-Histag, 6 μg PipX–ST added; 50 mM Tris-HCl pH 7, 0.1 M KCl, 10% glycerol, 10 mM MgCl2, 20 mM imidazole, 0.1% Triton-X100, with or without 1 mM GDP, room temperature; elution with 500 mM imidazole; Western blot with antisera against PipX and EngA; both purified
[4] = biological target: His-EngA (N-terminally His-tagged EngA) (Synechococcus elongatus PCC7942) (UniProt Q31KP9); experiment: as above

Row | Binder | binding [1] | binding [2] | binding [3] | binding [4]
1 | PipX (PII interacting protein X), BACTH fusions (protein, UniProt Q7X386 1-89) MASENYLNHPTFGLLYQICSFGDSKELFATLYAQRLFFLVAFDARGTRFEPIGRNEARMLVDNRLRQLRRDASLQEYNQLQQVFKQTFL | binds | binds |  | 
2 | PipX 1-70, BACTH fusions (domain or fragment, UniProt Q7X386 1-70) MASENYLNHPTFGLLYQICSFGDSKELFATLYAQRLFFLVAFDARGTRFEPIGRNEARMLVDNRLRQLRR | no binding | binds |  | 
3 | PipX–ST (C-terminally Strep-tagged PipX) (protein, UniProt Q7X386 1-89) MASENYLNHPTFGLLYQICSFGDSKELFATLYAQRLFFLVAFDARGTRFEPIGRNEARMLVDNRLRQLRRDASLQEYNQLQQVFKQTFL |  |  | binds | binds
4 | PipX 1-54, BACTH fusions (domain or fragment, UniProt Q7X386 1-54) MASENYLNHPTFGLLYQICSFGDSKELFATLYAQRLFFLVAFDARGTRFEPIGR | no binding |  |  | 
